In PMC5468090:
Construct, isoform or probe ends are uncertain for at least one entry.

Chains of the proteins cited; added tags and fusions are not shown. Lines headed by an entry give the natural chain unless they say otherwise; changes in a name come on top.
UniProt Q13426: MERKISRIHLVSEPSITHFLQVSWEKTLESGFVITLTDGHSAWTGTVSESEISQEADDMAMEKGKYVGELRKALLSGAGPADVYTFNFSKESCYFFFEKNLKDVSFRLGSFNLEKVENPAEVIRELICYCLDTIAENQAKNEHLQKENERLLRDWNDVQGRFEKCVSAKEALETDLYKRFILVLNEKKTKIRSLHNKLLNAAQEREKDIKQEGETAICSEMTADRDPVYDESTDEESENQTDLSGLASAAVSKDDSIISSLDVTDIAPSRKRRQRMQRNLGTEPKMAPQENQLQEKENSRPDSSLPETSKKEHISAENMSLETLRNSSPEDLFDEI

Biological target: XRCC4-WT (UniProt Q13426)
Assay: SPR
Conditions: high concentrations only, kon and koff at least 10x slower than XLF; SPR: 20 mM HEPES pH 8, 75 mM KCl, 10% glycerol, 1 mM DTT, 1 mM EDTA (running buffer + 0.05% Tween 20); recombinant protein; label: 5'-biotin on S1 primer end; probe letters rebuilt from the primers and the genome

“ACTTGACTCATGATTTCTTACCTATTAGTGGTTGAACAGCATCGGACTCAGATAGTAATCCACGCTCTTTTAAAATGTCAACAAGAGAATCTCTACCATGAACAAAATGTGACTCATATCTAAACCAGTCCTTGACGAACGTGCCAAGCATATTAAGCCACTTCTCCTCATCCAACGCGTCAGTTTTTGACAGAATCGTTAGTTGATGGCGAAAGGTCGCAAAGTAAGAGCTTCTCGAGCTGCGCAAGGATAGGTCGAATTTTCTCATTTTCCGCCAGCAGTCCACTTCGATTTAATTCGTAAACAAGCAGTAGTAATTCCTGCTTTATCAAGATAATTTTTCGACTCATCAGAAATATCCGAAAGTGTTAACTTCTGCGTCATGGAAGCGATAAAACTC (double strand) [400 bp SPR DNA]”: binds.
